From the supplement of paper PMC12819154, “High-throughput peptide-centric local stability assay extends protein–ligand identification to membrane proteins, tissues and bacteria” (Nature Structural & Molecular Biology, 2025)
This is one part of the list. Most values lie at the level of the controls, where differences are scatter.

The chains behind the UniProt entries cited, without tags or fusion partners. Where a name states a change or a piece, a line headed by the entry shows the natural chain unless it says otherwise.
UniProt Q6NV83: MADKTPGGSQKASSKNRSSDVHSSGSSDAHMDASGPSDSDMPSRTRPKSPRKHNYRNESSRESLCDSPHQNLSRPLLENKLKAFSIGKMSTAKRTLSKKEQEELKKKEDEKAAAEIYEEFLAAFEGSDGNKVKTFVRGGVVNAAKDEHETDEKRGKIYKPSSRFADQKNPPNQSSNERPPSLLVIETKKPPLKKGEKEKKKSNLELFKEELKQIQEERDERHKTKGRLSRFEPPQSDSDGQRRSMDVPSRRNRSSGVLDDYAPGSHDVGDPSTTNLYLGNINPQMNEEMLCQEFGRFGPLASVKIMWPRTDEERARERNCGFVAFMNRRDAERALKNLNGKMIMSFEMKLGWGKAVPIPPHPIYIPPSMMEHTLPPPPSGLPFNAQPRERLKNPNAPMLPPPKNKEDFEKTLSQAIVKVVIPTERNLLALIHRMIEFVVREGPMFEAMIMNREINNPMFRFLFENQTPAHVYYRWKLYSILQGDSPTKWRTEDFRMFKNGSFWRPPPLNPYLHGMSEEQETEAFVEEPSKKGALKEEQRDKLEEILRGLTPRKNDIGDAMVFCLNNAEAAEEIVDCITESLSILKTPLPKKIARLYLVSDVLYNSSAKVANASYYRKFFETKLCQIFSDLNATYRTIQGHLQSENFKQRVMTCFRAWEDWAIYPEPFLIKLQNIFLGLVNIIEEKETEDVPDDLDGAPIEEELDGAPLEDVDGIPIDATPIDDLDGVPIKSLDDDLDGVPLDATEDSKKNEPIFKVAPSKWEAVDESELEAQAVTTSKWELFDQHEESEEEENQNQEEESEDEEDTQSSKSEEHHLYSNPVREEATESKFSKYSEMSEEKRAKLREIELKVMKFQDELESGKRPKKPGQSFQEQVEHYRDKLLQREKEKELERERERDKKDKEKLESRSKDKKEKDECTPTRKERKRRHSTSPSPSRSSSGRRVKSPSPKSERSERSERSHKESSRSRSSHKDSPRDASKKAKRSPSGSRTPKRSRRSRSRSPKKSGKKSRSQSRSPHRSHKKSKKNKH
UniProt Q62193: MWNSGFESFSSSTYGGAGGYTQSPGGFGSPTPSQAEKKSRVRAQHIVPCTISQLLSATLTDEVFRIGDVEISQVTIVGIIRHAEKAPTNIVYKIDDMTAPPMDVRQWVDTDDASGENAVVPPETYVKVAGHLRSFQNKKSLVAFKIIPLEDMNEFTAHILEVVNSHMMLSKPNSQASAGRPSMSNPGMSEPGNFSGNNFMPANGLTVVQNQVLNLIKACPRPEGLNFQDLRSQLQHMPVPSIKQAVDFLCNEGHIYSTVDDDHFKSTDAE
UniProt Q5SRX1: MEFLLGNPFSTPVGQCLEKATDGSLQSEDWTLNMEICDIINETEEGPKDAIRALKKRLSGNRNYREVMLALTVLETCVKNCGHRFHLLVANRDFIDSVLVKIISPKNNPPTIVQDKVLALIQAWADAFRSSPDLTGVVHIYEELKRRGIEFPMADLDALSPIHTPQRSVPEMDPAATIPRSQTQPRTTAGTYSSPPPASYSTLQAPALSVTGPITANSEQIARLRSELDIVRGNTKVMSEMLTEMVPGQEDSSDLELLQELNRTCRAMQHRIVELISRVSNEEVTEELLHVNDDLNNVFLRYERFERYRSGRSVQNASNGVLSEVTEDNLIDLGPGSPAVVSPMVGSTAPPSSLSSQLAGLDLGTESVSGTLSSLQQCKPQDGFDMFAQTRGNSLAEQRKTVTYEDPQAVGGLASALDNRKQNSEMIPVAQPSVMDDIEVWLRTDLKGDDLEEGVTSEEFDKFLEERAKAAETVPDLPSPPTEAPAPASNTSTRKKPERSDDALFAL
UniProt Q61165, whole entry: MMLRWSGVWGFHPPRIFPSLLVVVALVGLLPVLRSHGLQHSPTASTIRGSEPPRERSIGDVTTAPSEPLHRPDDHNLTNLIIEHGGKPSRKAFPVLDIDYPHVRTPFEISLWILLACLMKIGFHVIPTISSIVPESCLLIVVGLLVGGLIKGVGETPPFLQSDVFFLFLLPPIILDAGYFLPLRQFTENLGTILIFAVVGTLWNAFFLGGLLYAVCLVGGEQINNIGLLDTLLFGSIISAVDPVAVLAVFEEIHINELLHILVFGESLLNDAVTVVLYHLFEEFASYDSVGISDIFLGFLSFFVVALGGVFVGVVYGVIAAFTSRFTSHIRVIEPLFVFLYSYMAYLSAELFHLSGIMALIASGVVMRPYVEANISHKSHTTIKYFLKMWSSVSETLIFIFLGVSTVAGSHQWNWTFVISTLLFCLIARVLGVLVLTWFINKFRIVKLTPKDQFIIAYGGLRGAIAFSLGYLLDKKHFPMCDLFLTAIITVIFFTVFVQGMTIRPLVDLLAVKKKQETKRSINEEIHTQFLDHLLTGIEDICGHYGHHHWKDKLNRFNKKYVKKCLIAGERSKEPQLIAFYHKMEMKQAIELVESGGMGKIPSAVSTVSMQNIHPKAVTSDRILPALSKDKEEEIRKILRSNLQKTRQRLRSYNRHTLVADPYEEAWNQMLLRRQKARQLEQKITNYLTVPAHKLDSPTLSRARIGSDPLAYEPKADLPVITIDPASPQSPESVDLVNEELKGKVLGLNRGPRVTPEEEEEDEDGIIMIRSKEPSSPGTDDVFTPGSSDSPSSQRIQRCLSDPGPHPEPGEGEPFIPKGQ
UniProt Q61739: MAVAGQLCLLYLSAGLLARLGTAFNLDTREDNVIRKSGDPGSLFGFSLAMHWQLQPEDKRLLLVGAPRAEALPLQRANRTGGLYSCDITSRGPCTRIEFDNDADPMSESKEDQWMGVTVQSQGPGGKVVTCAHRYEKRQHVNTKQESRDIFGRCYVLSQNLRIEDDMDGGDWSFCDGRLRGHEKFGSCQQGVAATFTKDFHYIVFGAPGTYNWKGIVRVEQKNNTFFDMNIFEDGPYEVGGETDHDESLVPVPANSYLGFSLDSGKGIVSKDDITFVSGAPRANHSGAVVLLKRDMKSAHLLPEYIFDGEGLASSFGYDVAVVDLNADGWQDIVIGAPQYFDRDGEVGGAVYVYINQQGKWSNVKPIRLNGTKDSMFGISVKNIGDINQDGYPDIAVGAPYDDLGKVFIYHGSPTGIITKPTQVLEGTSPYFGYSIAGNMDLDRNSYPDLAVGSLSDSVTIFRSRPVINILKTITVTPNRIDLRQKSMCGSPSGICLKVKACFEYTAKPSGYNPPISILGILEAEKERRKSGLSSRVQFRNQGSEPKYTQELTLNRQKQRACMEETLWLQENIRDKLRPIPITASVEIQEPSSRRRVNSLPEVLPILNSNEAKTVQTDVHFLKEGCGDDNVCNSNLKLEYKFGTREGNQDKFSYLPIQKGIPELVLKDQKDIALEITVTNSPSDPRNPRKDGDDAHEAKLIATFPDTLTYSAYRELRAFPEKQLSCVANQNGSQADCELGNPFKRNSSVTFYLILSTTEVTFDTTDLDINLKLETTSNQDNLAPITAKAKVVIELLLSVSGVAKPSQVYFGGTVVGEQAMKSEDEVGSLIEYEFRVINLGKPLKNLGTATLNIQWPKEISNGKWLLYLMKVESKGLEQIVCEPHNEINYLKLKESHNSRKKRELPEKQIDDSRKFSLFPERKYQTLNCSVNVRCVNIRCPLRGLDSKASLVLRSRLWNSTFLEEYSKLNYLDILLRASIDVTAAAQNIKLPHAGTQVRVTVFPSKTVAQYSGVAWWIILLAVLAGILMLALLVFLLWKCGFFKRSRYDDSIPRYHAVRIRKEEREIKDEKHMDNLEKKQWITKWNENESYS
UniProt Q61655: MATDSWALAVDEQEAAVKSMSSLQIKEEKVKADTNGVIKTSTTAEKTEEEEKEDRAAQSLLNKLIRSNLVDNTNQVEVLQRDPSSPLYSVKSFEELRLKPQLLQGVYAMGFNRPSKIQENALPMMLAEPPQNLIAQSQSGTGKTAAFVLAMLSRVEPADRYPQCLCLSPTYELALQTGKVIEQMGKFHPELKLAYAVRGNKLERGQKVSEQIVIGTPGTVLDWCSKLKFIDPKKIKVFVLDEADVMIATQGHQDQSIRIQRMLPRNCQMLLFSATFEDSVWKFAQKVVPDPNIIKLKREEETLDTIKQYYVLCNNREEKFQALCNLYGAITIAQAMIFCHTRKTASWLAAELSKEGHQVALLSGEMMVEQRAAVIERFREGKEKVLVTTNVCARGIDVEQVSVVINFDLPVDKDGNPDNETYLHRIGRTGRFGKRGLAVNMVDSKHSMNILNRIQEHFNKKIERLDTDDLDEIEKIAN
UniProt Q64446: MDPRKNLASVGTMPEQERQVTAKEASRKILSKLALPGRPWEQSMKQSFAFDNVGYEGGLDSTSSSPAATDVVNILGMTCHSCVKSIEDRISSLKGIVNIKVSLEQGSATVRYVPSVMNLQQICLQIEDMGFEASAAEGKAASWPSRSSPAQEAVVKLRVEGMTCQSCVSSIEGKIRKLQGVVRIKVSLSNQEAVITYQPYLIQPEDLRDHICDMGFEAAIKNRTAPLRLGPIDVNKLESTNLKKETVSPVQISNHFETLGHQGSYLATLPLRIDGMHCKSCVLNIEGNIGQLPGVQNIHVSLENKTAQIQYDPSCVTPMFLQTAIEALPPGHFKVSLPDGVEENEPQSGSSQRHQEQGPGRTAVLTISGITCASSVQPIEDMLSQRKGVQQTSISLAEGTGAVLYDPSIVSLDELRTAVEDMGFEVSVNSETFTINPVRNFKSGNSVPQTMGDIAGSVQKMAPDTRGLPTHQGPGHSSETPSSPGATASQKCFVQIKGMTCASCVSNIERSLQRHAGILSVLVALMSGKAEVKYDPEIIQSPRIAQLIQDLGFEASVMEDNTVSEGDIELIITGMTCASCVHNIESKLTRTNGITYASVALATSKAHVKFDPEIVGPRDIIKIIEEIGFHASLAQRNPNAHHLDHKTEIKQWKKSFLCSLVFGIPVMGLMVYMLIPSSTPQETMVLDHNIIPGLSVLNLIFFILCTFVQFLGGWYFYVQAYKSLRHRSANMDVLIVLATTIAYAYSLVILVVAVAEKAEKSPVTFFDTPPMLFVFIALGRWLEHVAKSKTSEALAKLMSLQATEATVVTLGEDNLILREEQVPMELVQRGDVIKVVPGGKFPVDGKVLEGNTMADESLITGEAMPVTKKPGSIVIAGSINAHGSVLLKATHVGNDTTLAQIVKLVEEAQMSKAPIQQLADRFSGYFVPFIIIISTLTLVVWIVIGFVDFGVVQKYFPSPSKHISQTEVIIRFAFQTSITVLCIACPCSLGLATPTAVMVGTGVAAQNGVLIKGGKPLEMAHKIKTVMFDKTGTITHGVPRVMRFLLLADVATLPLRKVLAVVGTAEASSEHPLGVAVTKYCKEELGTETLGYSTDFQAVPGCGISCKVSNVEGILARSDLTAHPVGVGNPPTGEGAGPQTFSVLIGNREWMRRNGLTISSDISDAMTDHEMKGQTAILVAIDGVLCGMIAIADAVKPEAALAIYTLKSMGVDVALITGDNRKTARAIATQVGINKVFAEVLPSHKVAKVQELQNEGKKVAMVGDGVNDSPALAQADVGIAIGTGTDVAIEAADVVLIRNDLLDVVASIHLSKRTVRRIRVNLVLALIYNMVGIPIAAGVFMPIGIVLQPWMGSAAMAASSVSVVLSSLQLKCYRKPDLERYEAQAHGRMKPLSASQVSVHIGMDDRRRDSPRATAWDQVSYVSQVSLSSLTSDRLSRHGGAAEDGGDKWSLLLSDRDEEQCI
UniProt Q61548: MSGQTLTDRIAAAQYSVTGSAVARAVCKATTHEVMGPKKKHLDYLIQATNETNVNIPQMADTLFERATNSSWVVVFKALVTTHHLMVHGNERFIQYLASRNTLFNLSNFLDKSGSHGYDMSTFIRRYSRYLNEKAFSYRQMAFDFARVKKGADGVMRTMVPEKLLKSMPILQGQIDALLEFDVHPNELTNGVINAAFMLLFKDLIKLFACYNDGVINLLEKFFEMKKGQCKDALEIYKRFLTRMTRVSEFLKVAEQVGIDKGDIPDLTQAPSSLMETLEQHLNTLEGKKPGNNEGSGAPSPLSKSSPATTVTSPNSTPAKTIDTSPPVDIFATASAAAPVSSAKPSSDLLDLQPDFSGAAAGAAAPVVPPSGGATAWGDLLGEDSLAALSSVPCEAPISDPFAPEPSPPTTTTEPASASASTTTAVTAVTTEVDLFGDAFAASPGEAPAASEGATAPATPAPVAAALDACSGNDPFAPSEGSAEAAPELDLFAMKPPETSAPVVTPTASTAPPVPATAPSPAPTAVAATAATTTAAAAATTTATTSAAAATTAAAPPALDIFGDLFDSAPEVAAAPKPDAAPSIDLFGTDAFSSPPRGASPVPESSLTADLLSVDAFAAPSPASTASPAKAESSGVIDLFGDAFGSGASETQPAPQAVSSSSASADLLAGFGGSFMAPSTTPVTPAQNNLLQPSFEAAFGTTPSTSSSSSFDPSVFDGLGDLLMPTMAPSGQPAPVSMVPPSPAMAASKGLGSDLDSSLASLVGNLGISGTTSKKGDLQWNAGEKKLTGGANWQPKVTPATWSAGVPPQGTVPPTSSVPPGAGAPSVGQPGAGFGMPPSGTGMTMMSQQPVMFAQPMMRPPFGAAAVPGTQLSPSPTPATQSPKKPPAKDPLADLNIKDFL

Each target was assayed with CN[C@@H]1C[C@H]2O[C@@](C)([C@@H]1OC)n1c3ccccc3c3c4c(c5c6ccccc6n2c5c31)C(=O)NC4 [staurosporine] (assay: log2 fold change of pooled soluble protein (PISA), ligand vs vehicle (log2 ratio); higher = more thermally stabilized). Settings: ligand concentration: 20 uM; assay format: PISA pool 52.9/55.5/58.6 C.

Target | log2 fold change of pooled soluble protein
UniProt Q6A028 | 0.135
UniProt Q60936 | -0.0709
UniProt Q6NV83 | -0.0827
UniProt Q61549 | 0.121
UniProt Q61823 | 0.0552
UniProt Q62193 | -0.0752
UniProt Q61838 | -0.0358
UniProt Q61268 | 0.109
UniProt Q5SRX1 | 0.366
UniProt Q61165 | -0.174
UniProt Q61712 | -0.0368
UniProt Q64487 | -0.196
UniProt Q6IEE6 | -0.0251
UniProt Q6NXI6 | 0.025
UniProt Q60989 | 0.0698
UniProt Q6AW69 | 0.059
UniProt Q61739 | 0.1
UniProt Q61644 | -0.301
UniProt Q61655 | 0.0503

Target | log2 fold change of pooled soluble protein
UniProt Q5SUC9 | -0.01
UniProt Q6NS57 | -0.0574
UniProt Q62348 | 0.153
UniProt Q64213 | -0.017
UniProt Q63829 | -0.102
UniProt Q63918 | 0.0642
UniProt Q5XJY4 | -0.107
UniProt Q64373 | 0.0213
UniProt Q64446 | -0.0408
UniProt Q64133 | -0.00392
UniProt Q61703 | -0.0187
UniProt Q5XJY5 | -0.159
UniProt Q64669 | 0.0112
UniProt Q61160 | -0.372
UniProt Q5U5Q9 | -0.0814
UniProt Q60902 | -0.0215
UniProt Q62418 | -0.0776
UniProt Q61548 | 0.103

Reprinted from the results shown for reference:
Target | log2 fold change of pooled soluble protein
UniProt Q5U5Q9 | -0.0814
UniProt Q60902 | -0.0215
